Article doi:10.1101/2025.07.22.665954
No constants are given. Whether binding was seen depends on the method and setting. Binding seen in cells or lysates may run through a third protein. Some entries that bind do so weakly or less than the wild type. Sequences can lack the tags named with a protein.

By UniProt entry, the sequences of proteins in these tests, tags left out.
UniProt P34077: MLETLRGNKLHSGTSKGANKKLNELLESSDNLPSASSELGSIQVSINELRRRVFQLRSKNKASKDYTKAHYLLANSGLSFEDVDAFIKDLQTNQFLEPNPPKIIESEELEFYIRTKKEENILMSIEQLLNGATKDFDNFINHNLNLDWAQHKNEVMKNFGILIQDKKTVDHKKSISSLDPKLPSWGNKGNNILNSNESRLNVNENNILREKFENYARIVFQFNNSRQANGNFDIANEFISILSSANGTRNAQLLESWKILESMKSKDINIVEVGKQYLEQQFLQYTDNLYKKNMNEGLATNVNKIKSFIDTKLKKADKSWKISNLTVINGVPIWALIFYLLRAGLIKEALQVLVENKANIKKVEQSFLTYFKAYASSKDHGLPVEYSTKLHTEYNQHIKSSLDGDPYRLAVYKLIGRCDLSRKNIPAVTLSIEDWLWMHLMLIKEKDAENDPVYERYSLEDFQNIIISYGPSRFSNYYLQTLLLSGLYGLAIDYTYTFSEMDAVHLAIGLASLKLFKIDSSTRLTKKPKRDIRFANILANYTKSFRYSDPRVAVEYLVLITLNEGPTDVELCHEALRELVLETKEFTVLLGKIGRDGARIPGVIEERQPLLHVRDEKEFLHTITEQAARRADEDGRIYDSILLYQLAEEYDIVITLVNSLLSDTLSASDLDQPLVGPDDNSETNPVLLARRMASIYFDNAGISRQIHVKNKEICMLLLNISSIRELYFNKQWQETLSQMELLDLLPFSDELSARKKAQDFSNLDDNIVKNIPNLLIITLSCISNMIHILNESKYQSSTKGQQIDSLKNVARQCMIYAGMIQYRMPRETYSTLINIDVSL

Molecular target: Nic96-GFP (S. cerevisiae) (UniProt P34077)
Assay: co-IP

binding: binds
B1: Brl1-HA (protein, UniProt P38770 1-471)
chain: MESFENLSIRDSFTSGMEHVDEELGGLSDLSISKQGPTLSPQLINRFMPHFPSSPSPLRNTLDFSAAKADEEEDDRMEIDEVDDTSFEEEYNNEPIETHTEATENAVVEEIEATPEERQKQEKNESQDQSVEEVENIVSPHRSTVIKALLSPTDLGVAAATKVEGVVPLPPSANQDDNESSNNNAEGEDIIRNEEVEDEIKSSLGNHKSSQYANAFDSEIIKRELRSRSKYQPIQVSFNTHNYFYSDKDGIKTYSLTKPNHNKIDEFYDQNEAFKLPKPWSPNSHPASRASYALMSYLQLFLNAITTVVIFSFILSFIIALQKDLKSTWEQRKHELQYESRICQEQYLTNRCNQTPGLPALGEQCAIWKQCMDRNNDIFFRARSTLSAKLFGDIINSFIDPLNWKTLFVIFCGVITWCFSSNFLLGFVRAKSYYGNGIKTYPLPSSPKSPTSEETHSSMTASGEDSHLLKQ
